Literature values in patent US20170290285A1, “HIGH REBAUDIOSIDE-C PLANT VARIETAL AND COMPOSITIONS EXTRACTED THEREFROM WITH HIGH REBAUDIOSIDE-C AND TOTAL STEVIOL GLYCOSIDE CONTENT” (GLG Life Tech Corporation, priority 2014, published 2017).

settings: Table 1

Molecule	Quality of taste
C=C1C[C@@]23CC[C@H]4[C@@](C)(CCC[C@@]4(C)C(=O)O[C@@H]4O[C@H](CO)[C@@H](O)[C@H](O)[C@H]4O)[C@@H]2CC[C@]1(O[C@@H]1O[C@H](CO)[C@@H](O)[C@H](O)[C@H]1O[C@@H]1O[C@@H](C)[C@H](O)[C@@H](O)[C@H]1O)C3 [Dulcoside A]	Very bitter
C=C1C[C@@]23CC[C@H]4[C@@](C)(CCC[C@@]4(C)C(=O)O[C@@H]4O[C@H](CO)[C@@H](O)[C@H](O)[C@H]4O[C@@H]4O[C@H](CO)[C@@H](O)[C@H](O)[C@H]4O)[C@@H]2CC[C@]1(O[C@@H]1O[C@H](CO)[C@@H](O)[C@H](O[C@@H]2O[C@H](CO)[C@@H](O)[C@H](O)[C@H]2O)[C@H]1O[C@@H]1O[C@H](CO)[C@@H](O)[C@H](O)[C@H]1O)C3 [Rebaudioside D]	Like sucrose
C=C1C[C@@]23CC[C@H]4[C@@](C)(CCC[C@@]4(C)C(=O)O[C@@H]4O[C@H](CO)[C@@H](O)[C@H](O)[C@H]4O[C@@H]4O[C@H](CO)[C@@H](O)[C@H](O)[C@H]4O)[C@@H]2CC[C@]1(O[C@@H]1O[C@H](CO)[C@@H](O)[C@H](O)[C@H]1O[C@@H]1O[C@H](CO)[C@@H](O)[C@H](O)[C@H]1O)C3 [Rebaudioside E]	Like sucrose
C=C1C[C@@]23CC[C@H]4[C@@](C)(CCC[C@@]4(C)C(=O)O)[C@@H]2CC[C@]1(O)C3 [Steviol]	Very bitter
C=C1C[C@@]23CC[C@H]4[C@@](C)(CCC[C@@]4(C)C(=O)O[C@@H]4O[C@H](CO)[C@@H](O)[C@H](O)[C@H]4O)[C@@H]2CC[C@]1(O[C@@H]1O[C@H](CO)[C@@H](O)[C@H](O)[C@H]1O[C@@H]1O[C@H](CO)[C@@H](O)[C@H](O)[C@H]1O)C3 [Stevioside]	Bitter
C=C1C[C@@]23CC[C@H]4[C@@](C)(CCC[C@@]4(C)C(=O)[O-])[C@@H]2CC[C@]1(O[C@@H]1O[C@@H](CO)[C@@H](O)[C@H](O)[C@@H]1O[C@@H]1O[C@@H](CO)[C@@H](O)[C@H](O)[C@@H]1O)C3.[Na+] [Stevlolbioside]	Unpleasant
Rebaudioside B	Bitter
Rebaudioside C	Bitter
Rubusoside	Very bitter
